Earlier results as cited in patent US9278992B2, “Function-selective vitamin D receptor agonist” (Nihon University, priority 2007, dated 2016).
At least one compound was matched to its structure with a doubt left.

Target: T1, farnesoid X receptor (FXR) (Homo sapiens, UniProt Q96RI1)
T1 sequence (Q96RI1 1-486): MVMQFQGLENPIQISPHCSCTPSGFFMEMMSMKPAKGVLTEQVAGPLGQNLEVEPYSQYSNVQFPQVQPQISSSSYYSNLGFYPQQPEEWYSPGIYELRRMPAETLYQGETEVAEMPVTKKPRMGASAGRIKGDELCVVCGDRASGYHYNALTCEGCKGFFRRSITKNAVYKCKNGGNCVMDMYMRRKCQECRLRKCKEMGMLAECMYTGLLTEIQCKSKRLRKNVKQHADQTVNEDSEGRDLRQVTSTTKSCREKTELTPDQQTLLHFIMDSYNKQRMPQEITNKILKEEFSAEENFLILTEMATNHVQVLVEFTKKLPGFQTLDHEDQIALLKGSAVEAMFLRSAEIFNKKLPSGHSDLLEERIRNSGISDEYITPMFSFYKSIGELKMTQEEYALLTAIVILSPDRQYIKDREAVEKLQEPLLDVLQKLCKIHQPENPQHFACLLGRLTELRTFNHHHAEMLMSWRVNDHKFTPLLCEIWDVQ
Conditions: Non-Patent Documents 3 and 4; cited from earlier work

Structure (SMILES): C[C@H](CCC(=O)O)[C@H]1CC[C@H]2[C@@H]3CC[C@@H]4C[C@H](O)CC[C@]4(C)[C@H]3CC[C@]12C [lithocholic acid]
- activity on FXR: activating
